According to US12306164B2, “Therapeutic drug for lipid-peroxidation-induced diseases and screening method for therapeutic drugs for lipid-peroxidation-induced diseases” (FUSO PHARMACEUTICAL INDUSTRIES, LTD., priority 2017, dated 2025):

Experiments:
[1] = system: lipid peroxidation reaction; experiment: Responsiveness of profluorescent nitroxide probe to lipid peroxidation reaction (liposomes + AAPH); details: 5.0 μM probe, 20 mM AAPH, after 40 minutes
[2] = Reactivity of profluorescent nitroxide probe with various oxidants; details: liposomes and AAPH (10 mM), after 30 minutes

CN(C)c1cccc2c(S(=O)(=O)NC3CC(C)(C)N([O])C(C)(C)C3)cccc12 [Dansyl-TEMPO, 2,2,6,6-Tetramethyl-4-(5-(dimethylamino)naphthalene-1-sulfonylamino)piperidin-1-oxyl]
fluorescence intensity increase compared to that in the case without AAPH [1]: 1.4 fold

CCC1(CC)CC(Nc2ccc([N+](=O)[O-])c3nonc23)CC(CC)(CC)N1O [NBD-TEEPO, 2,2,6,6-tetraethyl-4-(4-nitrobenzo[1,2,5]oxadiazol-7-ylamino)piperidin-1-oxyl]
responsiveness to lipid peroxidation reaction [2]: advantages in responsiveness; also recorded: high responsiveness

CC1(C)CC(Nc2ccc([N+](=O)[O-])c3nonc23)CC(C)(C)N1[O] [NBD-TEMPO, 2,2,6,6-Tetramethyl-4-(4-nitrobenzo[1,2,5]oxadiazol-7-ylamino)piperidin-1-oxyl]
fluorescence intensity increase compared to that in the case without AAPH [1]: 8.2 times

“Also recorded” adds a separate entry of the source.
